Experimental data: publication doi:10.1101/2022.02.01.475276
Results are given in words; binding and its absence hold for the method and conditions named. Some results given as binding are weak or reduced against the parent protein; the word gives no strength.

Chains of the proteins cited; added tags and fusions are not shown. Residues count along the entry.
UniProt P35869, residues 1-287: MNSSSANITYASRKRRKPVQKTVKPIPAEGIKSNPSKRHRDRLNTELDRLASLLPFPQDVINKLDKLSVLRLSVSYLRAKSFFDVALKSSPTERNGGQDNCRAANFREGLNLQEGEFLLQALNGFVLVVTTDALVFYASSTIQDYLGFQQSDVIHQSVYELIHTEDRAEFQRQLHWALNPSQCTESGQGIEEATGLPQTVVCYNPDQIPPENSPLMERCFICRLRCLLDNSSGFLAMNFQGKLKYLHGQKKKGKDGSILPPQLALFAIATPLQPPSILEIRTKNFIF
UniProt P27540, residues 1-362: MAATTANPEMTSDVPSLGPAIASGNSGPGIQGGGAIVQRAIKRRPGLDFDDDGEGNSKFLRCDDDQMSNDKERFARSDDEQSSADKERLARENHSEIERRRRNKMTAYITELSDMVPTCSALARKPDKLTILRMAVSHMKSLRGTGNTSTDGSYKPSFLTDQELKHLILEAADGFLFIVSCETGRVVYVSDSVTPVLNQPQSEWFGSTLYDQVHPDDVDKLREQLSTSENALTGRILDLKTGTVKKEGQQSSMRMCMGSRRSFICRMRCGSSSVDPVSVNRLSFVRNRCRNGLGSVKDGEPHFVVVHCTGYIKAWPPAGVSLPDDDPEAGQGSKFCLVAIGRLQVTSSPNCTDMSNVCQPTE
UniProt Q61324, residues 1-481: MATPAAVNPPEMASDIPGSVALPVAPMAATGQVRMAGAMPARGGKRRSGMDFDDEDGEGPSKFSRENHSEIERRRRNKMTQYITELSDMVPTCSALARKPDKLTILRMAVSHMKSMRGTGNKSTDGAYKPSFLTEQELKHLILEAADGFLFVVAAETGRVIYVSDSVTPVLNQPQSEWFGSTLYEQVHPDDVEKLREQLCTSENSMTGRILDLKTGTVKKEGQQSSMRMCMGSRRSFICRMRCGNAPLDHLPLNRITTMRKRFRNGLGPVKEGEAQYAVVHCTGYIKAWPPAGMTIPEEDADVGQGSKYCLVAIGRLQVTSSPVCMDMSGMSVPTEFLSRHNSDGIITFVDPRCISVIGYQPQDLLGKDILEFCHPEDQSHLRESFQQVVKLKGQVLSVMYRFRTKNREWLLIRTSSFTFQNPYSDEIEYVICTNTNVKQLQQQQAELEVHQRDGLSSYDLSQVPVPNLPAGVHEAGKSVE

Legend:
[1] = biological target: 6xHis-TEV-hAhR(1-287) (human) (UniProt P35869); test: co-purification of co-expressed proteins
[2] = biological target: T1, Truncated mNPAS4 (1-329) (mouse) (UniProt Q8BGD7); test: co-purification of co-expressed proteins
T1 sequence: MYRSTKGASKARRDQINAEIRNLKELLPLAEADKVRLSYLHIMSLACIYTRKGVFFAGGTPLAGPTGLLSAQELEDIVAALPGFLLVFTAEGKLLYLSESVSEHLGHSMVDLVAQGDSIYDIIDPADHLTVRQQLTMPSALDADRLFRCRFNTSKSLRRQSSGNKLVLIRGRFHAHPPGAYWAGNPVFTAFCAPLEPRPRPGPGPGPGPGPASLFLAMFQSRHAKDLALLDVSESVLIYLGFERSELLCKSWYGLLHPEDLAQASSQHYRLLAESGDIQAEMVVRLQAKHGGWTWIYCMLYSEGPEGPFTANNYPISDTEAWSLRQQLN

Substance | binding [1] | binding [2]
hARNT(1-362) (from UniProt P27540 1-362) (domain or fragment) | binds | –
mARNT2 (1-481) (from UniProt Q61324 1-481) (domain or fragment) | – | binds
